Laboratory results reported in patent publication US20170189476A1.
These are yes or no findings as the source states them, for the method shown. Some results given as binding are weak or reduced against the parent protein; the word gives no strength.

Amino acid sequences for entries named in this document (tags omitted). Residues count along the entry.
UniProt Q15116, residues 25-167: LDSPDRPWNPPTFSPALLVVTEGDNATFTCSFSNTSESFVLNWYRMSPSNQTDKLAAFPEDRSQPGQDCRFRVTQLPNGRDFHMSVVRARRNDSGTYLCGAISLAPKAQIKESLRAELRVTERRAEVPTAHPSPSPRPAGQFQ
UniProt Q02242, residues 25-169: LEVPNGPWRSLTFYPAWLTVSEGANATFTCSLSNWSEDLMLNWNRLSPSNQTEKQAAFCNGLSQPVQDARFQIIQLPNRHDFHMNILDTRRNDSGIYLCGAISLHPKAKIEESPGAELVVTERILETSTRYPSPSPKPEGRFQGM

How the values were obtained:
[1] = target: human PD-1 (hPD-1) (human) (UniProt Q15116); test: SPR (Proteon XPR36), hPD-1 coated on GLC chip, analyte at 50-1000 nM
[2] = target: mouse PD-1 (mPD-1) (mouse) (UniProt Q02242); test: ELISA, mPD-1 coated on plate, fusion protein titrated

- binding [1]: binds
- binding [2]: binds
B1: hPD-L1 (V,19-133)-hyFcM1 (Fc fusion)
chain: FTVTVPKDLYVVEYGSNMTIECKFPVEKQLDLAALIVYWEMEDKNIIQFVHGEEDLKVQHSSYRQRARLLKDQLSLGNAALQITDVKLQDAGVYRCMISYGGADYKRITVKVNAPRNTGRGGEEKKGGKEKEEQEERETKTPECPSHTQPLGVFLFPPKPKDTLMISRTPEVTCVVVDVSQEDPEVQFNWYVDGVEVHNAKTKPREEQFNSTYRVVSVLTVLHQDWLNGKEYKCKVSNKGLPSSIEKTISKAKGQPREPQVYTLPPSQEEMTKNQVSLTCLVKGFYPSDIAVEWESNGQPENNYKTTPPVLDSDGSFFLYSRLTVDKSRWQEGNVFSCSVMHEALHNHYTQKSLSLSLGK
